Measured data: PubChem BioAssay AID652243 (Drosophila RNAi Screening Center, 2013)
The deposit covers about 24,000 reagents; below is a random part of those with a known target gene and a result. Of all reagents, 246 (1%) got an active call. 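Plates not normalised; calls are printed but the firefly/Renilla ratio behind them is not deposited; fold cut for lowering reported inconsistently.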 The raw values are shown without normalisation. Names joined by + are all predicted targets of the reagent. Reagent sequences are not shown. Not stated in the record: the amount of reagent.

Test: 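Fly regulators of androgen-dependent reporter output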 (primary screen)
Cells: Drosophila S2R+ cells
Knock-down reagent: long dsRNA against Drosophila genes
Duration: 72 h (48 h, then 24 h hormone)
Treatment: synthetic androgen R1881 at 10 nM for 24 h
Read-out: 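Firefly light from an androgen-responsive reporter and Renilla control light per well, raw and unnormalised, for each of two replicates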
Reading the numbers: firefly reporter light: higher = more light from androgen-responsive reporter; Renilla control light: higher = more constitutive control signal (cell number, transfection)
Hit rule: 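Across duplicate plates, a knock-down whose log firefly/Renilla ratio shifted a set fold down or up from the GFP/LacZ control mean was a hit; the downward cut appears as both 1.5 and 3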
Meaning of the calls: active = hit: reporter lowered or raised; inactive = no hit

no.	predicted target	amplicon	firefly reporter light, replicate 1	firefly reporter light, replicate 2	Renilla control light, replicate 1	Renilla control light, replicate 2	call
1	Jon74E (Jonah 74E)	DRSC10617	2.10e5	1.60e5	1.23e6	9.99e5	inactive
2	Jon74E (Jonah 74E)	DRSC23947	4.91e5	3.81e5	5.41e5	3.96e5	inactive
3	Vajk1	DRSC01882	2.79e5	2.85e5	2.24e6	2.39e6	inactive
4	Vajk1	DRSC26105	2.81e5	2.14e5	4.76e5	4.91e5	inactive
5	CG14882	DRSC15006	33274	56742	3.29e5	2.73e5	inactive
6	CG14882	DRSC28318	3.71e5	8.51e5	1.15e6	1.81e6	inactive
7	CG12974	DRSC11684	3.17e5	2.60e5	2.85e6	2.78e6	inactive
8	CG13540	DRSC04182	3.15e5	2.38e5	1.94e6	1.33e6	inactive
9	CG8008	DRSC07053	1.01e6	1.12e6	1.71e6	1.75e6	inactive
10	CG8008	DRSC27395	2.67e5	2.85e5	9.15e5	1.01e6	inactive
11	CG8008	DRSC39024	7.47e5	7.00e5	2.64e6	2.34e6	inactive
12	CG2070	DRSC06814	3.83e5	3.29e5	1.41e6	1.30e6	inactive
13	CG7289	DRSC00697	9.71e5	1.15e6	2.52e6	2.25e6	inactive
14	Mtr4 (Mtr4 helicase)	DRSC03560	4.44e5	5.71e5	6.33e5	1.47e6	inactive
15	eIF4G1 (eukaryotic translation initiation factor 4G1)	DRSC17218	70637	75397	6.59e5	5.08e5	inactive
16	eIF4G1 (eukaryotic translation initiation factor 4G1)	DRSC29786	5.25e5	4.54e5	1.25e6	1.18e6	inactive
17	Alp7 (Alkaline phosphatase 7)	DRSC04355	1.95e5	1.51e5	1.05e6	8.20e5	inactive
18	Alp7 (Alkaline phosphatase 7)	DRSC27071	4.35e5	3.37e5	7.70e5	5.51e5	inactive
19	Alp7 (Alkaline phosphatase 7)	DRSC39316					inactive
20	enok (enoki mushroom)	DRSC04096	1.15e6	3.69e5	1.47e6	9.08e5	inactive
21	Drsl4 (Drosomycin-like 4)	DRSC08034	2.14e5	2.81e5	2.29e5	2.86e5	inactive
22	Drsl4 (Drosomycin-like 4)	DRSC27159	5.06e5	4.87e5	6.68e5	6.33e5	inactive
23	CG4025	DRSC18523	2.54e5	3.64e5	3.25e6	3.03e6	inactive
24	levy	DRSC04289	3.10e5	2.55e5	1.99e6	1.30e6	inactive
25	Zip42C.2 (Zinc/iron regulated transporter-related protein 42C.2)	DRSC05004	4.48e5	3.81e5	2.19e6	2.09e6	inactive
26	Zip42C.2 (Zinc/iron regulated transporter-related protein 42C.2)	DRSC26644	3.82e5	3.19e5	1.00e6	8.69e5	inactive
27	Zip42C.2 (Zinc/iron regulated transporter-related protein 42C.2)	DRSC39021	7.96e5	8.70e5	1.44e6	1.57e6	inactive
28	Sc2	DRSC08162	1.34e6	9.24e5	1.75e6	1.05e6	inactive
29	Sc2	DRSC26153	3.30e5	2.47e5	6.93e5	4.59e5	inactive
30	CR42545 (pseudo)	DRSC03709	2.84e5	2.96e5	1.53e6	2.40e6	inactive
31	CG17636	DRSC20648	1.33e5	1.25e5	4.27e5	3.68e5	inactive

10 consecutive records from above:
no.	predicted target	amplicon	firefly reporter light, replicate 1	firefly reporter light, replicate 2	Renilla control light, replicate 1	Renilla control light, replicate 2	call
20	enok (enoki mushroom)	DRSC04096	1.15e6	3.69e5	1.47e6	9.08e5	inactive
21	Drsl4 (Drosomycin-like 4)	DRSC08034	2.14e5	2.81e5	2.29e5	2.86e5	inactive
22	Drsl4 (Drosomycin-like 4)	DRSC27159	5.06e5	4.87e5	6.68e5	6.33e5	inactive
23	CG4025	DRSC18523	2.54e5	3.64e5	3.25e6	3.03e6	inactive
24	levy	DRSC04289	3.10e5	2.55e5	1.99e6	1.30e6	inactive
25	Zip42C.2 (Zinc/iron regulated transporter-related protein 42C.2)	DRSC05004	4.48e5	3.81e5	2.19e6	2.09e6	inactive
26	Zip42C.2 (Zinc/iron regulated transporter-related protein 42C.2)	DRSC26644	3.82e5	3.19e5	1.00e6	8.69e5	inactive
27	Zip42C.2 (Zinc/iron regulated transporter-related protein 42C.2)	DRSC39021	7.96e5	8.70e5	1.44e6	1.57e6	inactive
28	Sc2	DRSC08162	1.34e6	9.24e5	1.75e6	1.05e6	inactive
29	Sc2	DRSC26153	3.30e5	2.47e5	6.93e5	4.59e5	inactive

Additional entries:
no.	predicted target	amplicon	firefly reporter light, replicate 1	firefly reporter light, replicate 2	Renilla control light, replicate 1	Renilla control light, replicate 2	call
32	Rbcn-3A (Rabconnectin-3A)	DRSC18314	3.46e5	3.33e5	2.87e6	2.20e6	inactive
33	Rbcn-3A (Rabconnectin-3A)	DRSC28199	8.42e5	1.34e6	1.81e6	1.57e6	inactive
34	trx (trithorax)	DRSC17089	74531	49323	2.77e5	2.66e5	inactive
35	trx (trithorax)	DRSC38481	4.35e5	4.25e5	1.08e6	1.46e6	inactive
36	CG34461	DRSC10767	2.65e5	2.40e5	3.26e6	2.19e6	inactive
37	CG1529	DRSC20515	5.20e5	4.88e5	2.28e6	2.34e6	inactive
38	CG1529	DRSC24433	6.57e5	9.26e5	1.24e6	1.19e6	inactive
39	gish (gilgamesh)	DRSC16154	46928	53332	5.24e5	6.60e5	inactive
40	gish (gilgamesh)	DRSC36673					inactive
41	atilla	DRSC02971	3.19e5	3.20e5	1.60e6	1.71e6	inactive
42	atilla	DRSC27408	2.89e5	2.68e5	6.60e5	6.74e5	inactive
43	CG16985	DRSC08501	1.04e5	1.19e5	1.31e6	1.19e6	inactive
44	Pkn + Tsen15	DRSC21969	4.00e5	5.66e5	1.27e6	1.56e6	inactive
45	Pkn + Tsen15	DRSC27376	2.99e5	3.19e5	6.91e5	8.36e5	inactive
46	wg (wingless)	DRSC03636	2.16e5	2.58e5	1.82e6	1.81e6	inactive
47	wg (wingless)	DRSC29776	4.33e5	5.07e5	1.01e6	1.14e6	inactive
48	msl-3 (male-specific lethal 3)	DRSC11371	1.88e5	1.20e5	2.50e6	1.63e6	inactive
49	Cow	DRSC13601	5.33e5	8.33e5	2.08e6	3.77e6	inactive
50	Cow	DRSC14680	1.23e5	1.57e5	2.25e6	2.36e6	inactive
51	Cow	DRSC29766	4.47e5	3.89e5	1.39e6	1.35e6	inactive
52	salto	DRSC06291	1.18e6	1.39e6	1.36e6	1.37e6	inactive
53	salto	DRSC29983	5.97e5	3.37e5	1.28e6	9.31e5	inactive
54	Mur82C (Mucin related 82C)	DRSC12011	91840	54019	2.53e5	2.33e5	inactive
55	Mur82C (Mucin related 82C)	DRSC12212	6.45e5	7.76e5	9.52e5	9.02e5	inactive
56	Mur82C (Mucin related 82C)	DRSC23420	9.43e5	1.13e6	8.75e5	9.17e5	inactive
57	Mur82C (Mucin related 82C)	DRSC39063	5.68e5	4.21e5	1.21e6	9.31e5	inactive
58	Drgx (Dorsal root ganglia homeobox)	DRSC00278	1.30e5	94131	7.97e5	6.41e5	inactive
59	Drgx (Dorsal root ganglia homeobox)	DRSC00537	89479	1.16e5	6.26e5	7.36e5	inactive
60	Drgx (Dorsal root ganglia homeobox)	DRSC28844	3.81e5	3.45e5	1.74e6	1.66e6	inactive
